In test [1] the target is GAL4-DBD-LANA 1–340 aa (bait) (KSHV (HHV8)) (UniProt Q9QR71). The experiment in a line: two-hybrid.
Test [2] addresses LANA 1–340 aa-myc (wt CBD) (KSHV (HHV8)) (UniProt Q9QR71). The experiment in a line: co-IP; H1 and H2B co-expressed together with LANA 1-340 aa; data not shown.
Test [3] concerns the target GST-LANA1–32 (wt CBD) (KSHV (HHV8)) (UniProt Q9QR71). The experiment in a line: pull-down; only the target purified.
The target in test [4] is LANA 1–340 aa-myc (wt CBD) (KSHV (HHV8)) (UniProt Q9QR71). Briefly: co-IP.
Test [5] has as its target LANA 1–32 fused to GFP-C term (158–238 aa) (KSHV (HHV8)) (UniProt Q9QR71). Briefly: split reporter.
Test [6] concerns the target LANA 1–340 fused to GFP-C term (KSHV (HHV8)) (UniProt Q9QR71). The experiment in a line: split reporter.
Test [7] concerns the target GST-LANA-N (1–340 aa) (KSHV (HHV8)) (UniProt Q9QR71). Briefly: pull-down; only the target purified.
Test [8] addresses LANA-FL-myc (wt CBD), expressed in cells (KSHV (HHV8)) (UniProt Q9QR71). Briefly: co-IP.

Sequences of proteins named here, by UniProt entry; tags and fusion partners are left off. A change or cut given only in a name is not applied to a line headed by its entry. Residues count along the entry.
UniProt Q9QR71: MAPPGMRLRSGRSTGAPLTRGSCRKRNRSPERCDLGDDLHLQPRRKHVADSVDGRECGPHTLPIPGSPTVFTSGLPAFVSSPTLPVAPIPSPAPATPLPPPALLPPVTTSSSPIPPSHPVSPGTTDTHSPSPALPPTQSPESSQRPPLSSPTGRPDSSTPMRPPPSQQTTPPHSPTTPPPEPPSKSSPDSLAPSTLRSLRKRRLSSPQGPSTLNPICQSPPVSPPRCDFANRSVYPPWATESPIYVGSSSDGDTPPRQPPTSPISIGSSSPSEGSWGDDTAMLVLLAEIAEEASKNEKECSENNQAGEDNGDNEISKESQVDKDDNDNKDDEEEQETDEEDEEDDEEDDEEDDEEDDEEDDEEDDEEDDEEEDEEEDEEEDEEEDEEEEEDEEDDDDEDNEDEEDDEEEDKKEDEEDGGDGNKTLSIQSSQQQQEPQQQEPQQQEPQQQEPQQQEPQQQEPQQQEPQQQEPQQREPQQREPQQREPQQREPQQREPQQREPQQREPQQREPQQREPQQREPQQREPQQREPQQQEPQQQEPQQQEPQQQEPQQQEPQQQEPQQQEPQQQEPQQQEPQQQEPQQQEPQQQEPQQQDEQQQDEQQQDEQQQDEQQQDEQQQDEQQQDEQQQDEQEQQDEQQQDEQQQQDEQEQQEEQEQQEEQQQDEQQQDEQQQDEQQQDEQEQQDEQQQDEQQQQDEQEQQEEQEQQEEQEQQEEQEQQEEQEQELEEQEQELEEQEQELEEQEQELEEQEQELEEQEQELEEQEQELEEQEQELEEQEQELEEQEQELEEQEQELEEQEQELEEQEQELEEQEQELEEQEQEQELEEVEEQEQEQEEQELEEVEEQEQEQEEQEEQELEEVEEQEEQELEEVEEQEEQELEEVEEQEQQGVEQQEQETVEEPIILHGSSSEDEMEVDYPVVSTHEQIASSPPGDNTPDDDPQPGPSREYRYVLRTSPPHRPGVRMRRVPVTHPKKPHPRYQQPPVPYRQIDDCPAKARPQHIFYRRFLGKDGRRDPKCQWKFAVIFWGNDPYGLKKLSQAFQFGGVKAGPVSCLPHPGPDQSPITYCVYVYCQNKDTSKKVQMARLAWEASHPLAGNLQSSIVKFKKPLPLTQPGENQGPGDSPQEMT
GAL4-DBD-LANA 1–340 aa (bait) (KSHV (HHV8)): residues 1-340 of Q9QR71
GST-LANA1–32 (wt CBD) (KSHV (HHV8)): residues 1-32 of Q9QR71
UniProt Q92522: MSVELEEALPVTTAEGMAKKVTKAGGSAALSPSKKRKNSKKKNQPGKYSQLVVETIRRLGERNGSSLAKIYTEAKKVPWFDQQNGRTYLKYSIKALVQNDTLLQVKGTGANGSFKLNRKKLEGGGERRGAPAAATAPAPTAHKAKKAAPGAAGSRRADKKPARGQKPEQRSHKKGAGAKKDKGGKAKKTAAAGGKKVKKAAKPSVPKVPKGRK

No constants are given. Whether binding was seen depends on the method and setting. For part of these data: Binding seen in cells or lysates may run through a third protein. Some entries that bind do so weakly or less than the wild type. For part of these data: Sequences can lack the tags named with a protein.

Take “GAL4-ACT-histone H1 (prey) (from UniProt Q92522 1-213)”: the binding entry in test [1] is reported as “binds”.

“HA tagged histone H1 (H1.x) (from UniProt Q92522 1-213)”: the binding result in test [2], in test [3] and in test [4] was “binds” in each case. On to “histone H1 fused with GFP-N term (1–157 aa) (from UniProt Q92522 1-213)”, for which the binding result in test [5] and in test [6] was “binds” in each case. As to “in-vitro translated histone H1 (H1.x) (from UniProt Q92522 1-213)”, the binding entry in test [3] and in test [7] was “binds” in each case.

B1: GAL4-ACT-DEK (prey) (protein, UniProt P35659 1-375)
chain: MSASAPAAEGEGTPTQPASEKEPEMPGPREESEEEEDEDDEEEEEEEKEKSLIVEGKREKKKVERLTMQVSSLQREPFTIAQGKGQKLCEIERIHFFLSKKKTDELRNLHKLLYNRPGTVSSLKKNVGQFSGFPFEKGSVQYKKKEEMLKKFRNAMLKSICEVLDLERSGVNSELVKRILNFLMHPKPSGKPLPKSKKTCSKGSKKERNSSGMARKAKRTKCPEILSDESSSDEDEKKNKEESSDDEDKESEEEPPKKTAKREKPKQKATSKSKKSVKSANVKKADSSTTKKNQNSSKKESESEDSSDDEPLIKKLKKPPTDEELKETIKKLLASANLEEVTMKQICKKVYENYPTYDLTERKDFIKTTVKELIS
With B1, the binding entry in test [1] is on record as “binds”.

B2: HA tagged DEK (protein, UniProt P35659 1-375)
chain: B1 chain
In the case of B2, in test [8], the binding result was “binds”.

B3: GAL4-ACT-HMG-N1 (prey) (protein, UniProt P05114 1-100)
chain: MPKRKVSSAEGAAKEEPKRRSARLSAKPPAKVEAKPKKAAAKDKSSDKKVQTKGKRGAKGKQAEVANQETKEDLPAENGETKTEESPASDEAGEKEAKSD
For the molecule B3, in test [1], the binding entry was “binds”.

B4: HA tagged HMG-N1 (protein, UniProt P05114 1-100)
chain: B3 chain
Consider B4, for which the binding entry in test [8] was “binds”.

(Values after publication PMC3770571.)
